Results published in paper PMC10037838.

Sequences of proteins named here, by UniProt entry; tags and fusion partners are left off. Residues count along the entry.
UniProt P16422, 24-314: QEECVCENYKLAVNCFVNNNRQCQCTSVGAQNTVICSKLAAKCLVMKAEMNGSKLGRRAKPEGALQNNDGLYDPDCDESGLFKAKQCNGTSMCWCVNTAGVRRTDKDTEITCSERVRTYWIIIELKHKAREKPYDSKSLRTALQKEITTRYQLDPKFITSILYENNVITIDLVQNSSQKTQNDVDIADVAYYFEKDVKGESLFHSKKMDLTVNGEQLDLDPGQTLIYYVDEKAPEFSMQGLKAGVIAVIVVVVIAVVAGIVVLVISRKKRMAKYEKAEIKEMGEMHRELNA
UniProt P06731, 35-685: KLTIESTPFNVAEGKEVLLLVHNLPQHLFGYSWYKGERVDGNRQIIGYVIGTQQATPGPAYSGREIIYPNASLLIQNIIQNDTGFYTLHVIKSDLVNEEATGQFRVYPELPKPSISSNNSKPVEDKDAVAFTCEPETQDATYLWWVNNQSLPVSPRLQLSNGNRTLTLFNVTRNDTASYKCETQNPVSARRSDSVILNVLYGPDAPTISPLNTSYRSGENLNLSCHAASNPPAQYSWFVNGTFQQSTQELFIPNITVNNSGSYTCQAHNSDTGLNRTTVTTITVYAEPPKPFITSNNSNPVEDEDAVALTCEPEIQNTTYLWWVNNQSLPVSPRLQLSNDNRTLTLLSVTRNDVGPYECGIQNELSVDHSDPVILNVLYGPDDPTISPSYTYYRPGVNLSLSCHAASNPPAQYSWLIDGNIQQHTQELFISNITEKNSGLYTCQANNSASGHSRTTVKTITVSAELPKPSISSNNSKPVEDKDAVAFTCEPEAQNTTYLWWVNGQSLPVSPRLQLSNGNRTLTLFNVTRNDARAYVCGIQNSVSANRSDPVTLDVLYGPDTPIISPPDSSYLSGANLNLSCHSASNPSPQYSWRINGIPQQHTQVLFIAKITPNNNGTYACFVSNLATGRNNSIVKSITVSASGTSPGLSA

How the values were obtained:
[1] = target: EpCAM (on exosome surface) (UniProt P16422); test: strand displacement with electrochemical readout (DPV); conditions: whole exosomes, block strand B2 displaced; 5' thiol (HS), on gold nanoparticles; Aptamer-GNP conjugates in PBS pH 7.4, exosomes 1 h (temperature of capture not stated); released block strands on the electrode 37 C 1 h; protein on the cell surface; single-stranded DNA
CEA (on exosome surface) = CEA (on exosome surface) (UniProt P06731); test: as above; conditions: whole exosomes, block strand B1 displaced; 5' thiol (HS), on gold nanoparticles; Aptamer-GNP conjugates in PBS pH 7.4, exosomes 1 h (temperature of capture not stated); released block strands on the electrode 37 C 1 h; protein on the cell surface; single-stranded DNA

“TTTTTTCACTACAGAGGTTGCGTCTGTCCCACGTTGTCATGGGGGGTTGGCCTG [Aptamer2 (Apt2)]”: binds [1].
“TTTTTTTCGCGCGAGTCGTCTGGGGAACCATCGAGTTACACCGACCTTCTATGTGCGGCCCCCCGCATCGTCCTCCC [Aptamer1 (Apt1)]”: binds (CEA (on exosome surface)).

For at least one entry, the source does not settle the construct or the ends of the probe. At least one result comes from cells or an extract, where the contact may be indirect. At least one verdict rests on a figure or table, not on a statement of the authors.
